Earlier results in US6432967B1 (Mayo Foundation for Medical Education & Research, priority 1995, dated 2002).
Some entries share one result that the patent states for a list of compounds.

Conditions: patients treated long-term for IBD

Sc1ncnc2nc[nH]c12 [6MP, 6-mercaptopurine]
dose-related leukopenia, share of patients: 2-5%
